Source: PubChem BioAssay AID662 (National Center for Advancing Translational Sciences (NCATS), 2007)
This is one part of the list. Shown are side measurements of this screen, not its main read-out; they come without a call. The list favours compounds with an active or inconclusive main result. Words in brackets tell the shape of the fitted curve; partial curves, single points and poor fits give uncertain potencies.

Experiment: Cell signaling CRE-BLA (Fsk stim)
Details: CHO CRE-bla reporter (cAMP response element driving beta-lactamase), forskolin EC10, beta-lactamase ratio; measured here: 460 nm blue channel
In short: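 The 460nm/530nm emission ratio after CCF4 loading defined %Activity, from which AC50 values were obtained. CRE-bla CHO cells received compound dilution series together with an EC10 level of NKH 477 for 3 hours at 37 degrees Celsius.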
In the case of `Cc1[nH]nc2c1C(c1ccc(F)cc1)C1=C(CC(C)(C)CC1=O)N2` (stereo not drawn), the AC50 is reported as 0.794 µM [falling, full curve].
In the case of `Cc1cc(-n2ccc(=O)[nH]c2=O)nc(-c2ccccc2)n1`, the AC50 is reported as 12.6 µM [rising, single point].
In the case of `O=C(Nc1ccc(-c2noc(CCc3ccccc3)n2)cc1)c1ccco1`, the AC50 is reported as 3.16 µM [falling, full curve, poor fit].
In the case of `CCC1(CC)Cc2ccccc2-c2nc(CN3CCOCC3)[nH]c(=O)c21`, the AC50 is reported as 10 µM [rising, single point].
For `Cc1n[nH]c(=O)nc1N1CCc2ccccc2C1`, the AC50 was 0.00398 µM [falling, full curve, poor fit].
With `CCOCCCNC(=O)NC12CC3CC(CC(C3)C1)C2` the AC50 was 3.98 µM [rising, partial curve].
In the case of `O=C(Nc1ncc(Cc2ccccc2)s1)c1cccs1`, the AC50 is reported as 5.01 µM [rising, single point].
In the case of `CCN(CC)c1nc(N)c2c(N)nc3c(c2c1C#N)CC(c1ccccc1)O3` (stereo not drawn), the AC50 is reported as 12.6 µM [rising, partial curve].
In the case of `CCOC(=O)c1c(NC(=O)CSc2nnnn2C)sc(C)c1C`, the AC50 is reported as 12.6 µM [rising, single point].
With `CCCOC(=O)c1ccc(-c2c(C)noc2-c2ccc(OC)cc2O)o1` the AC50 was 25.1 µM [falling, single point].
In the case of `COc1ccccc1N1CCN(C(=O)c2cc3c(=O)n(C)c4ccccc4c3n2C)CC1`, the AC50 is reported as 3.16 µM [rising, partial curve].
In the case of `COc1ccc(-n2c(=O)c(-c3cccs3)nc3cnc(Oc4ccccc4)nc32)cc1`, the AC50 is reported as 5.01 µM [rising, partial curve].
In the case of `CCOC(=O)N1CCN(c2ccc(S(=O)(=O)N(Cc3ccccc3)Cc3ccccc3)cn2)CC1`, the AC50 is reported as 0.126 µM [falling, partial curve].
In the case of `O=S(=O)(O)c1ccc2cc(N=Nc3cc(S(=O)(=O)O)c4cccnc4c3O)ccc2c1`, the AC50 is reported as 3.98 µM [rising, single point].
With `CCc1ccccc1NC1c2ccccc2C(=O)N1c1cccnc1` (stereo not drawn) the AC50 was 0.1 µM [falling, partial curve, poor fit].
With `Nc1c(C(=O)NCC2CCCO2)c2nc3ccccc3nc2n1-c1ccccc1` (stereo not drawn) the AC50 was 12.6 µM [rising, partial curve].
In the case of `Cc1nc(NCc2ccc3c(c2)OCO3)c2oc3ccccc3c2n1`, the AC50 is reported as 3.98 µM [rising, partial curve].
With `O=C(c1cccn2c(=O)c3cc(Cl)ccc3nc12)N1CCOCC1` the AC50 was 1.26 µM [rising, full curve].
For `CC(=O)O[C@]1(C(C)=O)CC[C@H]2[C@@H]3C[C@H](C)C4=CC(=O)CC[C@]4(C)[C@H]3CC[C@@]21C`, the AC50 was 25.1 µM [rising, partial curve].
With `CC(C)C(=O)Nc1cc(C(F)(F)F)ccc1N1CCOCC1` the AC50 was 0.501 µM [rising, full curve, poor fit].
With `Cc1cc(NC(=O)c2ccc3nc(-c4ccccc4)c(-c4ccccc4)nc3c2)no1` the AC50 was 25.1 µM [falling, single point].
With `CCc1nc2ccccc2c(C(=O)OCC(=O)NCc2ccco2)c1C` the AC50 was 10 µM [rising, partial curve].
In the case of `CC(=O)NC12CC3CC(C)(C1)CC(NC(C)=O)(C3)C2`, the AC50 is reported as 0.00398 µM [falling, full curve, poor fit].
With `NC(=O)c1c(NC(=O)c2cc3ccccc3o2)sc2c1CCC2` the AC50 was 15.8 µM [rising, partial curve].
In the case of `CC(C)Cc1nc2oc3c(N4CCN(CCO)CC4)ncnc3c2c2c1CCCC2`, the AC50 is reported as 6.31 µM [rising, partial curve].
In the case of `COc1cccc(Cn2c(=O)c(-c3cc(F)cc(F)c3)nc3cnc(N(C)C)nc32)c1`, the AC50 is reported as 3.98 µM [rising, partial curve].
For `O=C(c1ccco1)N1CCN(C(=O)c2ccc(COc3ccc(F)cc3)o2)CC1`, the AC50 was 0.0158 µM [falling, full curve, poor fit].
With `CC(C)Oc1ccc(C(CC(=O)O)NC(=O)CSc2ncn[nH]2)cc1` (stereo not drawn) the AC50 was 0.251 µM [falling, partial curve].
For `Cc1cc(C)c(C(N)=O)c(Nc2cccc(Cl)c2C)n1`, the AC50 was 25.1 µM [rising, single point].
In the case of `CC(C)CNc1cc(=O)n(C)c(=O)n1C`, the AC50 is reported as 2.51 µM [rising, full curve].
In the case of `CCc1c2c(nc3cccc(SC)c13)COC2`, the AC50 is reported as 7.94 µM [rising, partial curve].
With `Cn1c(N)c(S(=O)(=O)c2ccc(Br)cc2)c2nc3ccccc3nc21` the AC50 was 12.6 µM [rising, partial curve].
In the case of `CS(=O)(=O)Nc1cccc(-c2ccc3ncnc(NCc4cccs4)c3c2)c1`, the AC50 is reported as 6.31 µM [rising, full curve].
With `CS(=O)(=O)c1ccc2nc(NC(=O)C3COc4ccccc4O3)sc2c1` (stereo not drawn) the AC50 was 0.0316 µM [falling, full curve, poor fit].
In the case of `Clc1ccc(-n2ncc3c(NCCN4CCOCC4)ncnc32)cc1`, the AC50 is reported as 10 µM [rising, partial curve].
In the case of `Nc1nc2n[nH]nc2c(=O)[nH]1`, the AC50 is reported as 5.01 µM [rising, partial curve].
In the case of `O=c1c(-c2cccc(F)c2)nc2cncnc2n1Cc1ccccc1Cl`, the AC50 is reported as 12.6 µM [rising, single point].
For `O=C(O)CCCC(=O)NCCc1cccc(Cl)c1`, the AC50 was 0.631 µM [rising, full curve, poor fit].
In the case of `Cc1ccc(Nc2cc(C)nn2-c2nc(C)cc(=O)[nH]2)cc1`, the AC50 is reported as 10 µM [rising, single point].
In the case of `Cc1cc(NC(=O)Cn2cnc3c(cnn3C(C)(C)C)c2=O)no1`, the AC50 is reported as 0.0158 µM [falling, full curve, poor fit].
In the case of `CCNc1nc2c(c(=O)[nH]c(=O)n2C)n1CC(C)C`, the AC50 is reported as 12.6 µM [rising, partial curve].
With `O=C(CCN1CCc2ccccc2C1)c1ccc2c(c1)OCCO2` the AC50 was 10 µM [falling, partial curve].
For `CCC1=C/C(=C\c2ccc3c(c2)OCO3)C(=O)S1`, the AC50 was 10 µM [falling, partial curve, poor fit].
For `COc1ccccc1N1CCN(c2nc(C)nc3c2oc2ccccc23)CC1`, the AC50 was 2 µM [rising, partial curve].
With `O=C(Cc1n[nH]c(=O)c2ccccc12)NCc1ccccn1` the AC50 was 3.16 µM [falling, partial curve, poor fit].
In the case of `CC(=O)NC(CCS(C)(=O)=O)C(=O)Nc1ccc(F)cc1Cl` (stereo not drawn), the AC50 is reported as 2.51 µM [falling, single point].
In the case of `COc1ccc(CCN(Cc2cc3cc(C)ccc3[nH]c2=O)C(=O)N2CCCC2)cc1OC`, the AC50 is reported as 12.6 µM [rising, single point].
With `O=C(COn1nnc2ccccc21)NCC1CCCCC1` the AC50 was 3.98 µM [falling, single point].
In the case of `COc1ccc2c(Cl)c(-c3nnc(SCC(N)=O)n3C)sc2c1`, the AC50 is reported as 10 µM [rising, partial curve].
With `CC(C)OCCCNC(=O)CN1CCN(Cc2ccccc2Cl)C1=O` the AC50 was 3.16 µM [rising, partial curve].
With `O=C(CCCn1c(=O)c2sccc2n(CC(=O)NCc2ccco2)c1=O)NCc1ccco1` the AC50 was 10 µM [rising, partial curve, poor fit].
In the case of `CCCn1c2c(c(O)c(C(=O)Nc3ncccc3C)c1=O)CCCC2`, the AC50 is reported as 1 µM [rising, full curve].
For `Cc1nc2cnc(N3CCNCC3)nc2n(-c2ccccc2)c1=O`, the AC50 was 12.6 µM [rising, partial curve].
In the case of `O=C(NCCc1ccco1)c1nn(Cc2ccccc2)c(=O)c2ccccc12`, the AC50 is reported as 10 µM [rising, partial curve].
For `CCn1c(SCC(=O)NCCOc2ccccc2)nc2ccccc2c1=O`, the AC50 was 12.6 µM [rising, partial curve].
In the case of `Cc1c(O)ccc(C(=O)COc2ccccc2F)c1O`, the AC50 is reported as 15.8 µM [falling, single point].
With `Cc1ccc(CN2C(=O)CCC2C(=O)NC2CCCC2)cc1` (stereo not drawn) the AC50 was 25.1 µM [rising, single point].
For `CCC(O)CNc1nc(SC)nc2sc3c(c12)CCN(C)C3` (stereo not drawn), the AC50 was 25.1 µM [rising, single point].
In the case of `CCn1cc(C(=O)OCC(=O)Nc2ccc(S(=O)(=O)N3CCCC3)cc2)c(=O)c2ccc(C)nc21`, the AC50 is reported as 0.0251 µM [rising, full curve, poor fit].
With `O=[N+]([O-])c1cccc2cn[nH]c12` the AC50 was 31.6 µM [falling, single point].
For `O=C(c1cc(-c2cccnc2)nc2ccc(Br)cc12)N1CCN(c2ncccn2)CC1`, the AC50 was 0.00398 µM [falling, full curve, poor fit].
With `CCOC(=O)Cn1nnnc1C(CC)N(Cc1cccs1)Cc1cc2ccc(OC)cc2[nH]c1=O` (stereo not drawn) the AC50 was 20 µM [rising, single point].
For `COc1cccc(C(=O)c2cc3ccc(O)cc3oc2=O)c1`, the AC50 was 25.1 µM [rising, single point].
For `CCOC(=O)CCS(=O)(=O)c1nc(-c2ccccc2)cc(C(F)(F)F)n1`, the AC50 was 7.94 µM [falling, partial curve].
For `OCCN(Cc1ccccc1)CC1CC=CCC1` (stereo not drawn), the AC50 was 0.316 µM [rising, partial curve].
In the case of `CC(=O)Nc1nonc1C(=O)N1CCC(C)CC1`, the AC50 is reported as 15.8 µM [rising, single point].
With `COCCCN=C(c1ccco1)n1c(=S)nc(-c2ccco2)n(CCCOC)c1=S` the AC50 was 12.6 µM [falling, partial curve].
With `COc1ccc(C2CC(=O)c3cnc(NC(=O)c4ccccc4)nc3C2)cc1OC` (stereo not drawn) the AC50 was 12.6 µM [rising, partial curve].
